This continues a long series; more values of the same kind are listed elsewhere.

Amino acid sequences for entries named in this document (tags omitted).
UniProt Q61188, whole entry: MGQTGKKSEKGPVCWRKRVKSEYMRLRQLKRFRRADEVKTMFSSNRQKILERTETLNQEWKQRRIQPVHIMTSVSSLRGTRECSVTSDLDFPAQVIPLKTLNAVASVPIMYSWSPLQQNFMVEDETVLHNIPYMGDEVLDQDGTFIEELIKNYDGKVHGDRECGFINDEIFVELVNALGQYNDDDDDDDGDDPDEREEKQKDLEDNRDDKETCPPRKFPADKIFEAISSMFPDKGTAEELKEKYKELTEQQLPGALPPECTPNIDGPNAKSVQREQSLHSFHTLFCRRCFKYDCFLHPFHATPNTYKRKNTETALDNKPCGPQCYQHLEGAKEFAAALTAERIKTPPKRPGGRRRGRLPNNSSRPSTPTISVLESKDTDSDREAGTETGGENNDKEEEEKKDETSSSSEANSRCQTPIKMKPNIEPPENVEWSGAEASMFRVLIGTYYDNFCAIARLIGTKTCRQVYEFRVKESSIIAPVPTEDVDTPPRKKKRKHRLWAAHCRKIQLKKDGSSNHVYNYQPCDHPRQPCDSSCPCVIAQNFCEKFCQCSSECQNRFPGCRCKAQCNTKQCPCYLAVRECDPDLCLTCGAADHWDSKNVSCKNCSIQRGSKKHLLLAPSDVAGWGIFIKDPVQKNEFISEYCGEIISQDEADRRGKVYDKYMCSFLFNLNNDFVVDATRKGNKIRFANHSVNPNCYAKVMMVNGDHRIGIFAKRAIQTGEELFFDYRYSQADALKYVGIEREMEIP

What all share (format): cell-based
Assay [1] concerns the target T1, RNA polymerase II (Mus musculus) (UniProt P08775+Q8CFI7+P97760+A0A3Q4L2S8+Q80UW8+P61219+P62488+Q923G2+P60898+O08740+Q63871+P62876). Nature of the assay: Inhibition of RNA polymerase II in mouse B16-F1 migrating cells assessed as fold change in Ncapg-RNA stability at 0.1 mM measured by ChIP-seq analysis relative to control cells.
Assay [2] addresses T1, RNA polymerase II (Mus musculus). In words: Inhibition of RNA polymerase II in mouse B16-F1 migrating cells assessed as fold change in Eya4-RNA stability at 0.1 mM measured by ChIP-seq analysis relative to control cells.
Assay [3] shares this target. In words: Inhibition of RNA polymerase II in mouse B16-F1 migrating cells assessed as fold change in Ssr3-RNA stability at 0.1 mM measured by ChIP-seq analysis relative to control cells.
For assay [4] the target is unchanged. In words: Inhibition of RNA polymerase II in mouse B16-F1 migrating cells assessed as fold change in Ccdc124-RNA stability at 0.1 mM measured by ChIP-seq analysis relative to control cells.
For assay [5] the target is unchanged. Nature of the assay: Inhibition of RNA polymerase II in mouse B16-F1 migrating cells assessed as fold change in Fam204a-RNA stability at 0.1 mM measured by ChIP-seq analysis relative to control cells.
Assay [6] has the same target. In words: Inhibition of RNA polymerase II in mouse B16-F1 migrating cells assessed as fold change in Anxa2-RNA stability at 0.1 mM measured by ChIP-seq analysis relative to control cells.
Assay [7] shares this target. Nature of the assay: Inhibition of RNA polymerase II in mouse B16-F1 migrating cells assessed as fold change in Smdt1-RNA stability at 0.1 mM measured by ChIP-seq analysis relative to control cells.
The target is the same in assay [8]. In words: Inhibition of RNA polymerase II in mouse B16-F1 migrating cells assessed as fold change in Gcc2-RNA stability at 0.1 mM measured by ChIP-seq analysis relative to control cells.
The target is the same in assay [9]. Nature of the assay: Inhibition of RNA polymerase II in mouse B16-F1 migrating cells assessed as fold change in Jmjd1c-RNA stability at 0.1 mM measured by ChIP-seq analysis relative to control cells.
Assay [10] shares this target. In words: Inhibition of RNA polymerase II in mouse B16-F1 migrating cells assessed as fold change in Slc25a1-RNA stability at 0.1 mM measured by ChIP-seq analysis relative to control cells.
Assay [11] has the same target. In words: Inhibition of RNA polymerase II in mouse B16-F1 migrating cells assessed as fold change in Eif4e2-RNA stability at 0.1 mM measured by ChIP-seq analysis relative to control cells.
Assay [12] has the same target. In words: Inhibition of RNA polymerase II in mouse B16-F1 migrating cells assessed as fold change in Rps16-RNA stability at 0.1 mM measured by ChIP-seq analysis relative to control cells.
The target is the same in assay [13]. In words: Inhibition of RNA polymerase II in mouse B16-F1 migrating cells assessed as fold change in Use1-RNA stability at 0.1 mM measured by ChIP-seq analysis relative to control cells.
Assay [14] has the same target. Nature of the assay: Inhibition of RNA polymerase II in mouse B16-F1 migrating cells assessed as fold change in Cetn3-RNA stability at 0.1 mM measured by ChIP-seq analysis relative to control cells.
Assay [15] shares this target. Nature of the assay: Inhibition of RNA polymerase II in mouse B16-F1 migrating cells assessed as fold change in Lypla2-RNA stability at 0.1 mM measured by ChIP-seq analysis relative to control cells.
The target is the same in assay [16]. Nature of the assay: Inhibition of RNA polymerase II in mouse B16-F1 migrating cells assessed as fold change in Acsf3-RNA stability at 0.1 mM measured by ChIP-seq analysis relative to control cells.
Assay [17] shares this target. Nature of the assay: Inhibition of RNA polymerase II in mouse B16-F1 migrating cells assessed as fold change in Trappc4-RNA stability at 0.1 mM measured by ChIP-seq analysis relative to control cells.
Assay [18] shares this target. In words: Inhibition of RNA polymerase II in mouse B16-F1 migrating cells assessed as fold change in Hnrnpa2b1-RNA stability at 0.1 mM measured by ChIP-seq analysis relative to control cells.
The target is the same in assay [19]. In words: Inhibition of RNA polymerase II in mouse B16-F1 migrating cells assessed as fold change in Mreg-RNA stability at 0.1 mM measured by ChIP-seq analysis relative to control cells.
Assay [20] addresses Histone-lysine N-methyltransferase EZH2 (Mus musculus) (UniProt Q61188). In words: Inhibition of EZH2 in mouse B16-F1 migrating cells assessed as fold change in H3K27me3-independent regulated Zfp469-mRNA expression at 3 uM measured by ChIP-seq analysis relative to control cells.
Assay [21] has the same target. Nature of the assay: Inhibition of EZH2 in mouse B16-F1 migrating cells assessed as fold change in H3K27me3-buffered regulated Zfp125-mRNA expression at 3 uM measured by ChIP-seq analysis relative to control cells.
Assay [22] shares this target. In words: Inhibition of EZH2 in mouse B16-F1 migrating cells assessed as fold change in H3K27me3-independent regulated Ctgf-mRNA expression at 3 uM measured by ChIP-seq analysis relative to control cells.
Assay [23] shares this target. In words: Inhibition of EZH2 in mouse B16-F1 migrating cells assessed as fold change in H3K27me3-buffered regulated Edaradd-mRNA expression at 3 uM measured by ChIP-seq analysis relative to control cells.
Assay [24] shares this target. In words: Inhibition of EZH2 in mouse B16-F1 migrating cells assessed as fold change in H3K27me3-buffered regulated Grhpr-mRNA expression at 3 uM measured by ChIP-seq analysis relative to control cells.
The target is the same in assay [25]. In words: Inhibition of EZH2 in mouse B16-F1 migrating cells assessed as fold change in H3K27me3-buffered regulated Kctd12-mRNA expression at 3 uM measured by ChIP-seq analysis relative to control cells.
The target is the same in assay [26]. Nature of the assay: Inhibition of EZH2 in mouse B16-F1 migrating cells assessed as fold change in H3K27me3-dependent regulated Plk2-mRNA expression at 3 uM measured by ChIP-seq analysis relative to control cells.
For assay [27] the target is unchanged. Nature of the assay: Inhibition of EZH2 in mouse B16-F1 migrating cells assessed as fold change in H3K27me3-buffered regulated Sil1-mRNA expression at 3 uM measured by ChIP-seq analysis relative to control cells.
For assay [28] the target is unchanged. In words: Inhibition of EZH2 in mouse B16-F1 migrating cells assessed as fold change in H3K27me3-buffered regulated Wdhd1-mRNA expression at 3 uM measured by ChIP-seq analysis relative to control cells.
Assay [29] has the same target. In words: Inhibition of EZH2 in mouse B16-F1 migrating cells assessed as fold change in H3K27me3-buffered regulated Ccnl2-mRNA expression at 3 uM measured by ChIP-seq analysis relative to control cells.
The target is the same in assay [30]. Nature of the assay: Inhibition of EZH2 in mouse B16-F1 migrating cells assessed as fold change in H3K27me3-buffered regulated Gm16062-mRNA expression at 3 uM measured by ChIP-seq analysis relative to control cells.

On to `OC[C@H]1O[C@@H](n2cnc3cc(Cl)c(Cl)cc32)[C@H](O)[C@@H]1O`, for which the log2FC in [1] was -0.47; in [2], -0.74; in assay [3] it was -0.43; in [4], 0.5; in assay [5], -1; in [6] it was 0.57. For the same molecule, the log2FC in assay [7] was 0.41; in [8], -0.66; in assay [9], -0.56; in [10], 0.65; in assay [11], 0.39; in assay [12], 0.44. Besides, the log2FC in [13] is 0.56; in [14] it was -0.66; in [15], 0.41; in [16] it was 0.56; in assay [17] it was 0.4; in [18], -0.48. Besides, the log2FC in assay [19] was -0.55.
As to `CCCc1cc(C)[nH]c(=O)c1CNC(=O)c1cc(-c2ccnc(N3CCN(C)CC3)c2)cc2c1cnn2C(C)C`, the log2FC is 0.5 in assay [20]; -0.48 in assay [21]; 0.79 in [22]; -0.63 in assay [23]; 0.51 in assay [24]; 0.57 in assay [25]. Further, the log2FC in [26] is 0.09; in [27] it was 0.46; in assay [28] it was -0.41; in assay [29], -0.48; in assay [30] it was 0.77.

Source of the values: ChEMBL document CHEMBL5674883, “The Heterochromatin Landscape in Migrating Cells and the Importance of H3K27me3 for Associated Transcriptome Alterations” (Cells, 2018).
